Results on 7 compounds are retold here after the supplement of paper PMC7238544.

Where a name gives a salt, the structure may show the parent alone. ± gives the standard deviation of the averaged measurements. Some of the results follow. The data scatter; read single values as rough.

Experiment [1] concerns hAMSC donor 1. As to the kind of experiment: Hoechst total cell count ratio vs vehicle control; higher = more cells (less toxicity).
Experiment [2] concerns hAMSC donor 2. Described as above.
The subject of experiment [3] is hAMSC donor 1. As to the kind of experiment: transgenic luciferase activity (RLU/mg protein) fold change vs vehicle control (ratio); higher = more transgene expression.
Experiment [4] relates to hAMSC donor 2. The experiment is described as above.
The subject of experiment [5] is hAMSC donor 1. Put plainly: transfection efficiency (EGFP+ cells / Hoechst count) fold change vs vehicle control (ratio); hAMSC are human adipose-derived mesenchymal stem cells given an EGFP-luciferase plasmid by lipofection; higher = enhanced transfection.
Experiment [6] deals with hAMSC donor 2. Described as above.
Setting [7] is: priming compound concentration 0.2 µM.
The mark [8] stands for this setting: priming compound concentration 1.7 µM.
Setting [9] is: priming compound concentration 13 µM.

On to `Cc1cc2c(s1)Nc1ccccc1N=C2N1CCN(C)CC1` [Olanzapine], for which the “Hoechst total cell count ratio” value with hAMSC donor 1 [1] (setting [7]) stood at 1.33 ± 0.19; with hAMSC donor 1 [1] (setting [8]), 1.27 ± 0.098; in the experiment with hAMSC donor 1 [1] (setting [9]) it was 1.35 ± 0.18; in the experiment with hAMSC donor 2 [2] (setting [7]) it was 0.956 ± 0.27; with hAMSC donor 2 [2] (setting [8]), 1.04 ± 0.21; in the experiment on hAMSC donor 2 [2] (setting [9]) it was 1.04 ± 0.11. Moreover, the transgenic luciferase activity worked out at 1.48 ± 0.65 with hAMSC donor 1 [3] (setting [8]); 0.594 ± 0.45 in the experiment with hAMSC donor 1 [3] (setting [9]); 0.765 ± 0.53 with hAMSC donor 2 [4] (setting [7]); 1.01 ± 0.044 with hAMSC donor 2 [4] (setting [8]); 0.803 ± 0.14 with hAMSC donor 2 [4] (setting [9]). Moreover, the transfection efficiency in the experiment with hAMSC donor 1 [5] (setting [7]) was 1.07 ± 0.071; in the experiment with hAMSC donor 1 [5] (setting [8]) it was 1.34 ± 0.13; in the experiment with hAMSC donor 1 [5] (setting [9]) it was 1.26 ± 0.19; in the experiment on hAMSC donor 2 [6] (setting [7]), 0.986 ± 0.47; in the experiment with hAMSC donor 2 [6] (setting [8]), 1.14 ± 0.15; in the experiment on hAMSC donor 2 [6] (setting [9]), 1.03 ± 0.27.
For `Cc1cccc(CN2CCN(C(c3ccccc3)c3ccc(Cl)cc3)CC2)c1` (centres undefined) [Meclizine hydrochloride], the “Hoechst total cell count ratio” value turned out to be 1.59 ± 0.075 in the experiment with hAMSC donor 1 [1] (setting [7]); 1.22 ± 0.091 with hAMSC donor 1 [1] (setting [8]); 1.34 ± 0.12 in the experiment with hAMSC donor 1 [1] (setting [9]); 1.16 ± 0.055 in the experiment on hAMSC donor 2 [2] (setting [7]); 1.12 ± 0.072 in the experiment on hAMSC donor 2 [2] (setting [8]); 1.39 ± 0.79 in the experiment on hAMSC donor 2 [2] (setting [9]). For the same compound, the transgenic luciferase activity in the experiment on hAMSC donor 1 [3] (setting [7]) came out at 0.792 ± 0.21; in the experiment with hAMSC donor 1 [3] (setting [8]) it was 1.42 ± 1; with hAMSC donor 2 [4] (setting [7]) it was 0.905 ± 0.18; in the experiment on hAMSC donor 2 [4] (setting [8]) it was 0.669 ± 0.1; in the experiment on hAMSC donor 2 [4] (setting [9]), 0.861 ± 0.08. Further, the transfection efficiency with hAMSC donor 1 [5] (setting [7]) was 0.755 ± 0.093; with hAMSC donor 1 [5] (setting [8]) it was 0.821 ± 0.23; with hAMSC donor 1 [5] (setting [9]) it was 0.875 ± 0.21; with hAMSC donor 2 [6] (setting [7]), 1.21 ± 0.12; in the experiment on hAMSC donor 2 [6] (setting [8]) it was 1.28 ± 0.057; in the experiment with hAMSC donor 2 [6] (setting [9]), 1.18 ± 0.29.
Turning to `CC1(C)S[C@@H]2[C@H](NC(=O)Cc3ccccc3)C(=O)N2[C@H]1C(=O)O` [Penicillin G potassium], the “Hoechst total cell count ratio” value stood at 1.49 ± 0.14 in the experiment on hAMSC donor 1 [1] (setting [7]); 1.14 ± 0.16 in the experiment on hAMSC donor 1 [1] (setting [8]); 1.49 ± 0.21 in the experiment on hAMSC donor 1 [1] (setting [9]); 1.15 ± 0.018 in the experiment with hAMSC donor 2 [2] (setting [7]); 1.18 ± 0.11 in the experiment with hAMSC donor 2 [2] (setting [8]); 1.12 ± 0.18 in the experiment on hAMSC donor 2 [2] (setting [9]). For the same compound, the transgenic luciferase activity in the experiment on hAMSC donor 1 [3] (setting [8]) was found to be 0.626 ± 0.032; in the experiment on hAMSC donor 1 [3] (setting [9]) it was 0.604 ± 0.33; with hAMSC donor 2 [4] (setting [7]), 0.978 ± 0.21; in the experiment on hAMSC donor 2 [4] (setting [8]), 0.571 ± 0.1; in the experiment with hAMSC donor 2 [4] (setting [9]), 0.505 ± 0.062. Also, the transfection efficiency in the experiment on hAMSC donor 1 [5] (setting [7]) worked out at 0.777 ± 0.18; in the experiment on hAMSC donor 1 [5] (setting [8]), 1.21 ± 0.38; in the experiment with hAMSC donor 1 [5] (setting [9]), 1.29 ± 0.18; with hAMSC donor 2 [6] (setting [7]), 0.985 ± 0.076; in the experiment with hAMSC donor 2 [6] (setting [8]), 1.22 ± 0.18; in the experiment with hAMSC donor 2 [6] (setting [9]), 0.925 ± 0.17.
For `CC(C)NCC(O)c1cc(O)cc(O)c1` (centres undefined) [Metaproterenol], the “Hoechst total cell count ratio” value amounted to 1.18 ± 0.2 with hAMSC donor 1 [1] (setting [7]); 1.16 ± 0.1 in the experiment on hAMSC donor 1 [1] (setting [8]); 1.33 ± 0.17 with hAMSC donor 1 [1] (setting [9]); 1.04 ± 0.044 in the experiment on hAMSC donor 2 [2] (setting [7]); 1.31 ± 0.039 in the experiment on hAMSC donor 2 [2] (setting [8]); 1.08 ± 0.17 with hAMSC donor 2 [2] (setting [9]). In addition, the transgenic luciferase activity with hAMSC donor 1 [3] (setting [7]) came out at 0.796 ± 0.29; in the experiment on hAMSC donor 1 [3] (setting [8]), 1.56 ± 0.43; in the experiment on hAMSC donor 2 [4] (setting [7]), 0.835 ± 0.079; in the experiment on hAMSC donor 2 [4] (setting [8]), 0.745 ± 0.032; with hAMSC donor 2 [4] (setting [9]), 0.825 ± 0.15. Also, the transfection efficiency is 1.27 ± 0.24 in the experiment on hAMSC donor 1 [5] (setting [7]); 0.873 ± 0.21 with hAMSC donor 1 [5] (setting [8]); 0.969 ± 0.17 in the experiment on hAMSC donor 1 [5] (setting [9]); 1.18 ± 0.36 with hAMSC donor 2 [6] (setting [7]); 0.927 ± 0.042 in the experiment on hAMSC donor 2 [6] (setting [8]); 0.948 ± 0.22 in the experiment on hAMSC donor 2 [6] (setting [9]).
Regarding `CN1CCN(c2c(F)cc3c(=O)c(C(=O)O)cn4c3c2SCC4)CC1` [Rufloxacin hydrochloride], the “Hoechst total cell count ratio” value in the experiment with hAMSC donor 1 [1] (setting [7]) was 1.13 ± 0.02; with hAMSC donor 1 [1] (setting [8]), 1.18 ± 0.11; in the experiment on hAMSC donor 1 [1] (setting [9]), 1.28 ± 0.14; with hAMSC donor 2 [2] (setting [7]) it was 0.949 ± 0.062; in the experiment with hAMSC donor 2 [2] (setting [8]) it was 1.28 ± 0.023; in the experiment on hAMSC donor 2 [2] (setting [9]) it was 1 ± 0.4. For the same compound, the transgenic luciferase activity is 0.78 ± 0.077 with hAMSC donor 1 [3] (setting [7]); 1.14 ± 0.29 in the experiment on hAMSC donor 1 [3] (setting [8]); 1.12 ± 0.27 in the experiment on hAMSC donor 2 [4] (setting [7]); 0.806 ± 0.1 with hAMSC donor 2 [4] (setting [8]); 0.608 ± 0.11 in the experiment on hAMSC donor 2 [4] (setting [9]). The transfection efficiency came out at 1.62 ± 0.19 with hAMSC donor 1 [5] (setting [7]); 1.54 ± 0.24 in the experiment with hAMSC donor 1 [5] (setting [8]); 0.848 ± 0.37 in the experiment on hAMSC donor 1 [5] (setting [9]); 1.38 ± 0.33 with hAMSC donor 2 [6] (setting [7]); 0.908 ± 0.066 in the experiment with hAMSC donor 2 [6] (setting [8]); 1.08 ± 0.4 in the experiment with hAMSC donor 2 [6] (setting [9]).
In the case of `CCCCNC(=O)NS(=O)(=O)c1ccc(C)cc1` [Tolbutamide], the “Hoechst total cell count ratio” value with hAMSC donor 1 [1] (setting [7]) was found to be 1.19 ± 0.13; with hAMSC donor 1 [1] (setting [8]), 1.37 ± 0.015; in the experiment with hAMSC donor 1 [1] (setting [9]) it was 1.47 ± 0.061; in the experiment with hAMSC donor 2 [2] (setting [7]) it was 0.946 ± 0.12; in the experiment on hAMSC donor 2 [2] (setting [8]) it was 1.04 ± 0.22; with hAMSC donor 2 [2] (setting [9]), 1.18 ± 0.17. Besides, the transgenic luciferase activity in the experiment on hAMSC donor 1 [3] (setting [7]) is 0.717 ± 0.035; in the experiment with hAMSC donor 1 [3] (setting [8]) it was 1.06 ± 0.14; with hAMSC donor 2 [4] (setting [7]), 0.864 ± 0.37; with hAMSC donor 2 [4] (setting [8]), 1.22 ± 0.11; with hAMSC donor 2 [4] (setting [9]) it was 0.688 ± 0.27. The transfection efficiency with hAMSC donor 1 [5] (setting [7]) came out at 1.1 ± 0.13; with hAMSC donor 1 [5] (setting [8]), 1.37 ± 0.36; in the experiment with hAMSC donor 1 [5] (setting [9]) it was 0.678 ± 0.31; in the experiment on hAMSC donor 2 [6] (setting [7]), 1.16 ± 0.28; with hAMSC donor 2 [6] (setting [8]), 1.08 ± 0.18; with hAMSC donor 2 [6] (setting [9]) it was 1.14 ± 0.2.
Turning to `CCc1cccc2c3c([nH]c12)C(CC)(CC(=O)O)OCC3` (centres undefined) [Etodolac], the “Hoechst total cell count ratio” value in the experiment with hAMSC donor 1 [1] (setting [7]) came out at 0.983 ± 0.16; in the experiment on hAMSC donor 1 [1] (setting [8]), 1.21 ± 0.048; with hAMSC donor 1 [1] (setting [9]), 1.12 ± 0.067; with hAMSC donor 2 [2] (setting [7]), 1.21 ± 0.11; with hAMSC donor 2 [2] (setting [8]), 1.05 ± 0.097; in the experiment with hAMSC donor 2 [2] (setting [9]), 0.947 ± 0.07. Also, the transgenic luciferase activity with hAMSC donor 1 [3] (setting [8]) worked out at 0.211 ± 0.079; with hAMSC donor 1 [3] (setting [9]) it was 0.901 ± 0.047; in the experiment with hAMSC donor 2 [4] (setting [7]), 0.981 ± 0.34; with hAMSC donor 2 [4] (setting [8]), 1.03 ± 0.095; in the experiment on hAMSC donor 2 [4] (setting [9]), 0.531 ± 0.12. Further, the transfection efficiency turned out to be 1.02 ± 0.39 in the experiment on hAMSC donor 1 [5] (setting [7]); 1.11 ± 0.64 with hAMSC donor 1 [5] (setting [8]); 0.538 ± 0.28 with hAMSC donor 1 [5] (setting [9]); 0.802 ± 0.088 in the experiment with hAMSC donor 2 [6] (setting [7]); 1.18 ± 0.2 in the experiment on hAMSC donor 2 [6] (setting [8]); 0.904 ± 0.11 with hAMSC donor 2 [6] (setting [9]).
